Assay results as given in PMC3079718.
Results are given in words; binding and its absence hold for the method and conditions named. For some assays here: Binding can be weak; no strength is given. Tags and fused reporters may be left off the sequences shown. For some assays here: Binding seen in cells or lysates may run through a third protein.

Tests used:
[1] = biological target: T1, pGBK-AtGILP (AtGILP fused to the DNA binding domain of GAL4) (Arabidopsis thaliana) (UniProt Q94CD4); assay: two-hybrid; bait in pGBKT7, prey in pGADT7-Rec, co-transformed into yeast strain AH109; quantitative beta-galactosidase activity of the colonies
T1 sequence: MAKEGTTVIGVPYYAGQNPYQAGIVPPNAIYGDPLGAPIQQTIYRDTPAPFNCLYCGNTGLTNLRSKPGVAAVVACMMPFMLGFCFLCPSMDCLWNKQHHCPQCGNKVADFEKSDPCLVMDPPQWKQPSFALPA

[2] = biological target: T2, MBP-AtGILP (Arabidopsis thaliana) (UniProt Q94CD4); assay: pull-down; 3 ug purified MBP fusion protein + 500 uL GST fusion protein supernatant + 30 uL amylose resin, 4 C for 4 h; binding buffer 20 mM Tris-HCl pH 7.4, 150 mM NaCl, 1 mM EDTA, 1% Triton X-100; washed with 500 mM NaCl, 1% Triton X-100; Western blot with anti-GST; only the target purified
T2 sequence: T1 sequence

[3] = biological target: T3, MBP-AtGILPN (Arabidopsis thaliana) (UniProt Q94CD4); assay: as above
T3 sequence: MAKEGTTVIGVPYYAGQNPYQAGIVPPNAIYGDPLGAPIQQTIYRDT

[4] = biological target: T4, MBP-AtGILPC (Arabidopsis thaliana) (UniProt Q94CD4); assay: as above
T4 sequence: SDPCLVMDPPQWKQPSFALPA

[5] = biological target: T5, MBP-AtGILPL (Arabidopsis thaliana) (UniProt Q94CD4); assay: condition: 3 ug MBP fusion protein with 500 uL GST fusion protein supernatant; pull-down; 3 ug purified MBP fusion protein + 500 uL GST fusion protein supernatant + 30 uL amylose resin, 4 C for 4 h; binding buffer 20 mM Tris-HCl pH 7.4, 150 mM NaCl, 1 mM EDTA, 1% Triton X-100; washed with 500 mM NaCl, 1% Triton X-100; Western blot with anti-GST; only the target purified
T5 sequence: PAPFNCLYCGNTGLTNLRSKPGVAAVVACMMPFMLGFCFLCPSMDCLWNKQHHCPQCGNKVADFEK

binding [1]	binding [2]	binding [3]	binding [4]	binding [5]	Substance
binds	–	–	–	–	pGAD-AtLSD1 (AtLSD1 in the prey vector pGADT7-Rec) (Arabidopsis)
–	binds	binds	binds	no binding	GST-AtLSD1 (Arabidopsis)
